Source: PubChem BioAssay AID1259308 (NCATS, 2017)
Test: 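Knock-downs that increase output of a recombinant reporter protein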 (primary screen). Cell system: human HEK293 embryonic kidney cells stably expressing firefly luciferase (HEK-CMV-Luc2-Hygro). Reagents: single siRNA against human genes, 0.8 pmol siRNA per well. Time to read-out: 72 h. Detection: 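Luciferase light (ONE-Glo) measured on one replicate plate set and viability (CellTiter-Glo) on the other, scaled to a negative control siRNA, with robust z-scores and luciferase per cell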. Reading the numbers: total luciferase, z-score and total luciferase, % of control: higher = more reporter protein produced; luciferase per cell, z-score: higher = more reporter output per viable cell; viable cells, % of control: higher = more viable cells. Call rule: 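Active when the median/MAD z-score for overall luciferase is greater than 3; a gene was taken forward for validation with new siRNAs if at least two of its three siRNAs passed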. Calls: active = raised luciferase; inactive = no rise.
Here is a random part of about 59,000 deposited reagents. Over the whole deposit, about 1,510 (2.6%) are marked active. 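Calls use total luciferase alone and ignore viability, so some active siRNAs may act by altering cell number.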 The numbers tell different reagents against one gene apart.

gene | reagent no. | total luciferase, z-score | total luciferase, % of control | luciferase per cell, z-score | viable cells, % of control | Call
FBH1 | 1 | -0.668 | 68.6 | 0.235 | 72.1 | inactive
FBH1 | 2 | -0.0621 | 80.7 | -0.166 | 94.1 | inactive
FBH1 | 3 | -0.376 | 74.4 | 0.11 | 80.8 | inactive
CYB5R1 | 1 | -0.781 | 66.3 | -0.869 | 93.2 | inactive
CYB5R1 | 2 | -0.0226 | 81.4 | -0.277 | 97.9 | inactive
CYB5R1 | 3 | 0.956 | 101 | 1.04 | 85.6 | inactive
LOC390282 | 1 | 1.59 | 114 | 1.03 | 96.7 | inactive
LOC390282 | 2 | -0.83 | 65.4 | -0.923 | 93.1 | inactive
LOC390282 | 3 | 0.323 | 88.3 | 1.18 | 72.3 | inactive
SLITRK1 | 1 | -0.708 | 67.8 | 0.132 | 73.2 | inactive
SLITRK1 | 2 | 0.214 | 86.1 | -0.339 | 105 | inactive
SLITRK1 | 3 | 0.454 | 90.9 | 0.0269 | 101 | inactive
UBE2E1 | 1 | -0.778 | 66.4 | -0.382 | 82.1 | inactive
UBE2E1 | 2 | -0.413 | 73.7 | -0.739 | 100 | inactive
UBE2E1 | 3 | -1.47 | 52.6 | -2.11 | 102 | inactive
COMT | 1 | 0.273 | 87.3 | -0.326 | 106 | inactive
COMT | 2 | 2.01 | 122 | 1.42 | 93.7 | inactive
COMT | 3 | 0.226 | 86.4 | -0.127 | 99.8 | inactive

Next part; the last 2 above are carried over.
gene | reagent no. | total luciferase, z-score | total luciferase, % of control | luciferase per cell, z-score | viable cells, % of control | Call
COMT | 2 | 2.01 | 122 | 1.42 | 93.7 | inactive
COMT | 3 | 0.226 | 86.4 | -0.127 | 99.8 | inactive
MXI1 | 1 | -1.4 | 54.1 | -1.09 | 80.5 | inactive
MXI1 | 2 | -2 | 42.2 | -2.59 | 93.3 | inactive
MXI1 | 3 | -0.235 | 77.2 | 0.584 | 74 | inactive
PLAU | 1 | 0.766 | 97.1 | 1.21 | 78.9 | inactive
PLAU | 2 | -1.41 | 53.8 | -1.48 | 88.9 | inactive
PLAU | 3 | 0.242 | 86.7 | 0.659 | 81.4 | inactive
DNAI4 | 1 | 0.86 | 99 | 0.386 | 99.9 | inactive
DNAI4 | 2 | -0.791 | 66.2 | -1.19 | 101 | inactive
DNAI4 | 3 | -1.14 | 59.1 | -0.774 | 81 | inactive
FTHL18P | 1 | -2 | 42.1 | -1.6 | 71.7 | inactive
FTHL18P | 2 | -0.575 | 70.5 | -0.698 | 94.6 | inactive
FTHL18P | 3 | 0.445 | 90.7 | 0.821 | 81.7 | inactive
PRH2 | 1 | 0.0015 | 81.9 | -0.42 | 102 | inactive
PRH2 | 2 | -1.06 | 60.8 | -0.1 | 69.8 | inactive
PRH2 | 3 | -1.05 | 61.1 | -1.17 | 92.8 | inactive
HNRNPA2B1 | 1 | 0.863 | 99.1 | 0.777 | 90.2 | inactive
HNRNPA2B1 | 2 | 0.655 | 94.9 | 1.11 | 79.2 | inactive
HNRNPA2B1 | 3 | 0.124 | 84.3 | 0.495 | 82.7 | inactive
WNT10B | 1 | -1.1 | 60 | -0.14 | 69.6 | inactive
WNT10B | 2 | 0.218 | 86.2 | 0.179 | 91.9 | inactive
WNT10B | 3 | 0.213 | 86.1 | 0.122 | 93.2 | inactive
